Literature values in patent US20190298799A1, “CONTROLLED-RELEASE APOPTOSIS MODULATING COMPOSITIONS AND METHODS FOR THE TREATMENT OF OTIC DISORDERS” (Otonomy, Inc., priority 2008, published 2019).
At least one structure is not confirmed: it was looked up by name or label, or the drawing left a doubt.

System: otic hair cells
Settings: following the ototoxic antibiotic gentamicin; by inhibiting induction of p38 MAPK phosphorylation

CN(C)c1ccc(O)c2c1C[C@H]1C[C@H]3[C@H](N(C)C)C(O)=C(C(N)=O)C(=O)[C@@]3(O)C(O)=C1C2=O [Minocycline, minocycline]
apoptosis of otic hair cells: prevents the apoptosis of otic hair cells
